According to paper PMC5787431:
No constants are given. Whether binding was seen depends on the method and setting. In cells and extracts the contact can be indirect. Some binding calls cover weakened binding; strength is not graded here.

Chains of the proteins cited; added tags and fusions are not shown.
UniProt Q9UER7: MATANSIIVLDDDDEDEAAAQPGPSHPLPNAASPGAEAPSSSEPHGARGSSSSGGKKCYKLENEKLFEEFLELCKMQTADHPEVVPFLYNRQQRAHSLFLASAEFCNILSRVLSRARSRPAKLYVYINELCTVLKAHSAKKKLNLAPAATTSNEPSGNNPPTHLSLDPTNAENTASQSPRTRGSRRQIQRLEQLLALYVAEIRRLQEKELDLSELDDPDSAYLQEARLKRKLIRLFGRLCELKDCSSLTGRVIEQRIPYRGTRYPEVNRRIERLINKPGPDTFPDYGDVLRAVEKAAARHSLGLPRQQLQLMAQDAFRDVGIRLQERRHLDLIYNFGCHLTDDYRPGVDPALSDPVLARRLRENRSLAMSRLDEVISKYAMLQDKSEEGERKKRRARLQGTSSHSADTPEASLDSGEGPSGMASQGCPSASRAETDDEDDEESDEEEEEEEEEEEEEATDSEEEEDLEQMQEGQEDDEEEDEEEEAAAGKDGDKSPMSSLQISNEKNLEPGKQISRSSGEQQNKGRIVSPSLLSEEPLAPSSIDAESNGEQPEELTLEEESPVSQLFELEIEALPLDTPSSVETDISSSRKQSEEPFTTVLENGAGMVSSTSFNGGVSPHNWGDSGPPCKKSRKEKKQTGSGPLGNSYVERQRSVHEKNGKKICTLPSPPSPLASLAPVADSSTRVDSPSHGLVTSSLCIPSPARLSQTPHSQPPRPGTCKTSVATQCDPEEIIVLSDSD
UniProt Q9QR71: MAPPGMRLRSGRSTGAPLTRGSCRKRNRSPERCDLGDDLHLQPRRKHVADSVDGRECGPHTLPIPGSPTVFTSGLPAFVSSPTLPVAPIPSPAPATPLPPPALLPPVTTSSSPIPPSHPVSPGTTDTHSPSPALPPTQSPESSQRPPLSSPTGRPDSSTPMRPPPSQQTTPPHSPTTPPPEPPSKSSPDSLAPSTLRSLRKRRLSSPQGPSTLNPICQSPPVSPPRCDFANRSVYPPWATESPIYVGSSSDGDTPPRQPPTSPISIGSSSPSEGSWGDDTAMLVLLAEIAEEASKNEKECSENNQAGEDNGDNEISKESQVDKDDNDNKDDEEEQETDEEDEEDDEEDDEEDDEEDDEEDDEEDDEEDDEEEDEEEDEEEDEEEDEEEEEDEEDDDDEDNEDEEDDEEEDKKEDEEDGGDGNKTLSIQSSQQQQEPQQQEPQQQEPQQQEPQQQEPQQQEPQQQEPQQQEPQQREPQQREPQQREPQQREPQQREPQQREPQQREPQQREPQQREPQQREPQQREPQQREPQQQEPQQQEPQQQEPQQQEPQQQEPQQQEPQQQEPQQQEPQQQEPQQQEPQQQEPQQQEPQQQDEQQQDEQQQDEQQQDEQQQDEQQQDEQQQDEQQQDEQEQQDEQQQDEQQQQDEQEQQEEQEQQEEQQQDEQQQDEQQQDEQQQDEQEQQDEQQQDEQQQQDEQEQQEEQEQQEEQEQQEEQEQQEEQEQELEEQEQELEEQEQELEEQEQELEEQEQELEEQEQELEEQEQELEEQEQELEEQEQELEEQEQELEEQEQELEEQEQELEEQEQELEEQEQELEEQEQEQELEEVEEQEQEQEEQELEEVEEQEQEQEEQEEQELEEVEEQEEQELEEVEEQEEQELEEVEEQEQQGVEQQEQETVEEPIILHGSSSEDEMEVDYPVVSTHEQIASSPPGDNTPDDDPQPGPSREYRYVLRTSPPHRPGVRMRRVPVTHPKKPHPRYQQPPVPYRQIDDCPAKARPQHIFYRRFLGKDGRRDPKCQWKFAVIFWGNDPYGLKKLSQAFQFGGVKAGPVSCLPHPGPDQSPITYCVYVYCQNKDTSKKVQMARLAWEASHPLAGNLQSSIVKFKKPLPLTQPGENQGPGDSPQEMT

Biological target: death domain-associated protein 6 (Daxx) (human (endogenous in BJAB and BC3)) (UniProt Q9UER7)
Test: co-IP; immunoprecipitation with anti-Daxx antibody from lysates of LANA-expressing (B-L-YFP) and control (B-YFP) BJAB cells, and of KSHV-infected BC3 and KSHV-negative BJAB cells; RIPA buffer (50mM Tris-HCl pH 7.5, 150mM NaCl, 1mM EDTA, 1% NP-40), overnight at 4°C, protein A and G sepharose, Western blot

Substance	binding
LANA (latency-associated nuclear antigen) of KSHV, viral protein in infected BC3 cells (from UniProt Q9QR71 1-1129)	binds
YFP-LANA-Flag (KSHV latency-associated nuclear antigen, lentiviral construct pLVx-AcYFP-C1-LANA-Flag) (from UniProt Q9QR71 1-1129)	binds
